From the M2OR odorant receptor database
Residue numbers refer to the chain shown, from its start. The entries are a selection whose mix differs from that of the whole data set. The calls were merged from several studies; some rest on single wells. The list shows a part of the results. The list shows a part of the results.

Chains of the proteins cited; added tags and fusions are not shown. A line that says so, or that is headed by a name, gives the form on record, which may keep a tag or linker.
OR2W1, as listed by the source: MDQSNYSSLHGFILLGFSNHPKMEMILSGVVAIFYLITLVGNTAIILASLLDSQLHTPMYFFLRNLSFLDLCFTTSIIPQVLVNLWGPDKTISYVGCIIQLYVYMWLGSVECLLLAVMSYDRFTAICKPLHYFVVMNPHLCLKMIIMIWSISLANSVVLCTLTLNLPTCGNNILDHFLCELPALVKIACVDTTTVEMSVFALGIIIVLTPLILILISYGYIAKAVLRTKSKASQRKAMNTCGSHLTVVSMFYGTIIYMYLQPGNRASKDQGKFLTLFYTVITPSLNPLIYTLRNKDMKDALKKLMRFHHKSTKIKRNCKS

Columns and labels:
Conditions in all cases: stereoisomer not certain
OR2T5 = tested on: T1, OR2T5
T1 sequence (whole entry): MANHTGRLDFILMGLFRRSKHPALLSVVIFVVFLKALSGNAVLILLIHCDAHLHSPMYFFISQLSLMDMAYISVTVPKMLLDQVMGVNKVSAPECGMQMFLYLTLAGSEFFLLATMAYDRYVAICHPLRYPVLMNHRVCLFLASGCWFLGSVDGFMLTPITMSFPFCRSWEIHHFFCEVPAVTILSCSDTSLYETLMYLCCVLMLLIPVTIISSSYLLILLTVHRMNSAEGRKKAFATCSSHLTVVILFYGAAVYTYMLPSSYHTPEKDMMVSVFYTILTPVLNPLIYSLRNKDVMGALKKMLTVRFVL
Procedure, shortened: (§1)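 Each entry records the cell line, G-protein, co-transfected protein and tags used. Methods varied with the source, often transient luciferase assays in mammalian cell lines. A receptor–molecule pair is called responsive (active) if the original authors judged its signal statistically different from baseline and non-responsive (inactive) otherwise.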

OR2T6 = tested on: T2, OR2T6
T2 sequence (whole entry): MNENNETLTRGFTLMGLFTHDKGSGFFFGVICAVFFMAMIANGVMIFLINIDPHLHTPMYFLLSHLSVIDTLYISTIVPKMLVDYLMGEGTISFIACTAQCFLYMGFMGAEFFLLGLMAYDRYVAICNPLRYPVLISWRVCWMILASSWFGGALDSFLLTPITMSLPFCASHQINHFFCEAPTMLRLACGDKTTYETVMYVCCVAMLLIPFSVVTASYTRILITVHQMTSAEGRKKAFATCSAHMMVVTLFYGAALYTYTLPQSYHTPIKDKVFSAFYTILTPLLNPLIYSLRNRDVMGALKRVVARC
Procedure, shortened: as §1

OR2T8 = tested on: T3, OR2T8
T3 sequence (whole entry): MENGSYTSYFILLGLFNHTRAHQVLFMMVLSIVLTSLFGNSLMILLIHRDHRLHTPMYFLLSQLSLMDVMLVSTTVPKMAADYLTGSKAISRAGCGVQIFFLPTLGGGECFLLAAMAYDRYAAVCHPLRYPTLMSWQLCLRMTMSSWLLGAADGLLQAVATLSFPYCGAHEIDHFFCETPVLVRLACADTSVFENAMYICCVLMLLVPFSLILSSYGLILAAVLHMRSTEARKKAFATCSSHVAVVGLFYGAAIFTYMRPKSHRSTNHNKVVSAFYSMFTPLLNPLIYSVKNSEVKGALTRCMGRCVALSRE
Procedure, shortened: as §1

OR2V1 = tested on: T4, OR2V1
T4 sequence (whole entry): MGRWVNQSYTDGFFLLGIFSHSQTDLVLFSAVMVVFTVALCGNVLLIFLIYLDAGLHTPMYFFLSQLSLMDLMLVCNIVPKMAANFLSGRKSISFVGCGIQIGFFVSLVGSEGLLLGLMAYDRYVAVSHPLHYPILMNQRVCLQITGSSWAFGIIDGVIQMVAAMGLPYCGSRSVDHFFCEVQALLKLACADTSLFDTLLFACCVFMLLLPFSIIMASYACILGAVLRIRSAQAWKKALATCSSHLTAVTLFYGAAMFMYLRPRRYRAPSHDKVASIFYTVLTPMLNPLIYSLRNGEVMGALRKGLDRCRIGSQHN
Procedure, shortened: as §1

OR2V2 = tested on: T5, OR2V2
T5 sequence (whole entry): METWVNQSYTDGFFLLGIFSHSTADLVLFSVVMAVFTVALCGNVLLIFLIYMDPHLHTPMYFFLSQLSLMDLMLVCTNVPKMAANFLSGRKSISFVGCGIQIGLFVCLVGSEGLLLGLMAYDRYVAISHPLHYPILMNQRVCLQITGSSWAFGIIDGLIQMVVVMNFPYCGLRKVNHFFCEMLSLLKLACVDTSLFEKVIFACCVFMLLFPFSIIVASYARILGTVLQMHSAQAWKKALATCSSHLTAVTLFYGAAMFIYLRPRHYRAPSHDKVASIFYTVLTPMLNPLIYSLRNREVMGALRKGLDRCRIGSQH
Procedure, shortened: as §1

OR2W1 (Homo sapiens) = biological target: T6, OR2W1 (Homo sapiens) (UniProt Q9Y3N9)
T6 sequence (whole entry): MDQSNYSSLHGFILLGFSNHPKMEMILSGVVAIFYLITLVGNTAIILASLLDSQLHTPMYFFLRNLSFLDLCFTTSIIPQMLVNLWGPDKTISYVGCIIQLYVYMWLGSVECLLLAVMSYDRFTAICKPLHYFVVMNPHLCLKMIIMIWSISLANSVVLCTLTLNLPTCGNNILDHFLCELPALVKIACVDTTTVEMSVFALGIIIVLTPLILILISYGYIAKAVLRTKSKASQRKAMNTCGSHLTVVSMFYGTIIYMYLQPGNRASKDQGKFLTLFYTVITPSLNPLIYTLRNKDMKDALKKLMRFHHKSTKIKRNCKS
Procedure, shortened: as §1

OR2W1 [1] = tested on: T7, OR2W1
T7 sequence (whole entry): T6 sequence (whole entry) with D296N
Procedure, shortened: as §1

OR2W1 [2] = tested on: OR2W1; remark: listed apart in the source
Procedure, shortened: as §1

OR2W3 = tested on: T8, OR2W3
T8 sequence (whole entry): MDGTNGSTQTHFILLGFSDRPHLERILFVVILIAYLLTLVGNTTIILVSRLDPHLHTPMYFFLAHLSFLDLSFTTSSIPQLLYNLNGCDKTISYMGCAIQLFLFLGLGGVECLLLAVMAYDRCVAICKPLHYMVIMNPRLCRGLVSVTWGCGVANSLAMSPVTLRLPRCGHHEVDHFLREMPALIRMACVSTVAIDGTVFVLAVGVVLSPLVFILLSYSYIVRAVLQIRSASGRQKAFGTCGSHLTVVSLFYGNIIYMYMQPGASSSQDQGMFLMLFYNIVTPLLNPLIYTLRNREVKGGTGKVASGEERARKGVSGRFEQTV
Procedure, shortened: as §1

OR2W5P (Homo sapiens) = biological target: T9, OR2W5P (Homo sapiens) (UniProt A6NFC9)
T9 sequence (whole entry): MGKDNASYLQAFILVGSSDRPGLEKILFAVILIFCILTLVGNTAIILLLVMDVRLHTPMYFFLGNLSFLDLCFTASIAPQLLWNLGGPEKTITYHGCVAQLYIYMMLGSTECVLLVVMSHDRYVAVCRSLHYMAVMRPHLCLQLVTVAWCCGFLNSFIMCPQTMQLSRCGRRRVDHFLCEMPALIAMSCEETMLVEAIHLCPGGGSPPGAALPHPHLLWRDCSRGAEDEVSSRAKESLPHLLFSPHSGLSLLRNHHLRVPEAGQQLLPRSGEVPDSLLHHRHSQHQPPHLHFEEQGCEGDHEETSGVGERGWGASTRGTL
Procedure, shortened: as §1

OR2Y1 = tested on: T10, OR2Y1
T10 sequence (whole entry): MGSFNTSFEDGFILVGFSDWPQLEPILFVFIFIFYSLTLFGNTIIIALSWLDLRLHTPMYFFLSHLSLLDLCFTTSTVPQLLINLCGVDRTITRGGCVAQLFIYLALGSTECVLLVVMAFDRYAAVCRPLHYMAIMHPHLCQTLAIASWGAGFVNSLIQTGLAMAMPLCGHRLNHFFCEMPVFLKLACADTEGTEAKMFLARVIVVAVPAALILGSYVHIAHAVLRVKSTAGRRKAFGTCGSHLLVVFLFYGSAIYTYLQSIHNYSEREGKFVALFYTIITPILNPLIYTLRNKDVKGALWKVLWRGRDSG
Procedure, shortened: as §1

OR2Z1 (Homo sapiens) = biological target: T11, OR2Z1 (Homo sapiens) (UniProt Q8NG97)
T11 sequence (whole entry): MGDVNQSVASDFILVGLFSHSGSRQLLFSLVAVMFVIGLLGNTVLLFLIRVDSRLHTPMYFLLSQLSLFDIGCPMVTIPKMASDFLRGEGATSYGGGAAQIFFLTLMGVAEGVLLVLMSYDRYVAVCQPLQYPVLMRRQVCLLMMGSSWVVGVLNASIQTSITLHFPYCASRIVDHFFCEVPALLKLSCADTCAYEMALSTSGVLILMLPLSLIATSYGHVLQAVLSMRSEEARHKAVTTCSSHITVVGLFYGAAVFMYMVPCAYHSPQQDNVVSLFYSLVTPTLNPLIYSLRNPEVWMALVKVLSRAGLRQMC
Procedure, shortened: as §1

OR3A1 (Homo sapiens) = biological target: T12, OR3A1 (Homo sapiens) (UniProt P47881)
T12 sequence (whole entry): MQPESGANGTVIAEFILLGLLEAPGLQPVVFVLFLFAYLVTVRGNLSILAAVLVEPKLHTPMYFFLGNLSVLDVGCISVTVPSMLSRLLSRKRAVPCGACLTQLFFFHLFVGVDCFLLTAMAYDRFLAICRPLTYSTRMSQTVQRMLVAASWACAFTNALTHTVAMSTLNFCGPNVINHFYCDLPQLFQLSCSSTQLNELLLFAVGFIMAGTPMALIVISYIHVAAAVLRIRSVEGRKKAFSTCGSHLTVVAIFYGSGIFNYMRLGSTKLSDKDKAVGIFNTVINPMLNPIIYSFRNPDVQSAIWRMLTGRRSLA
Procedure, shortened: as §1

OR3A2 (Homo sapiens) = biological target: T13, OR3A2 (Homo sapiens) (UniProt P47893)
T13 sequence (whole entry): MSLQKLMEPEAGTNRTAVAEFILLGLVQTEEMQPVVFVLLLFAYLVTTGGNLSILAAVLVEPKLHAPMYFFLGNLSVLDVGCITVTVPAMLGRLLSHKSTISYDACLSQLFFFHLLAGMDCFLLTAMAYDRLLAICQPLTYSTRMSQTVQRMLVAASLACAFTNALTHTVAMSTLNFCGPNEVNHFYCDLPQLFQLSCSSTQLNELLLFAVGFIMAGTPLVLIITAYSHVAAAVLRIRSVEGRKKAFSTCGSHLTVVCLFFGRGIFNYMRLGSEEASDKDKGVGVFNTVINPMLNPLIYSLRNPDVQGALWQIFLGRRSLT
Procedure, shortened: as §1

OR3A3 = tested on: T14, OR3A3
T14 sequence (whole entry): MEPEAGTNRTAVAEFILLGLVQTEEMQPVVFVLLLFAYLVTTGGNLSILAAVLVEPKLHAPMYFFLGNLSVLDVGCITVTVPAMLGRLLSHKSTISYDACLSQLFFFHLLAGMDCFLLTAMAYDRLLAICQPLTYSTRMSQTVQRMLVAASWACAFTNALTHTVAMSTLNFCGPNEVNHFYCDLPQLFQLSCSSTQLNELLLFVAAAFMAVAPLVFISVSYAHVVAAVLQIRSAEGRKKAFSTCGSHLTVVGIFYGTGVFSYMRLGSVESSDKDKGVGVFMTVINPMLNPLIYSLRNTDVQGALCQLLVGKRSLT
Procedure, shortened: as §1

OR3A4 = tested on: T15, OR3A4
T15 sequence (whole entry): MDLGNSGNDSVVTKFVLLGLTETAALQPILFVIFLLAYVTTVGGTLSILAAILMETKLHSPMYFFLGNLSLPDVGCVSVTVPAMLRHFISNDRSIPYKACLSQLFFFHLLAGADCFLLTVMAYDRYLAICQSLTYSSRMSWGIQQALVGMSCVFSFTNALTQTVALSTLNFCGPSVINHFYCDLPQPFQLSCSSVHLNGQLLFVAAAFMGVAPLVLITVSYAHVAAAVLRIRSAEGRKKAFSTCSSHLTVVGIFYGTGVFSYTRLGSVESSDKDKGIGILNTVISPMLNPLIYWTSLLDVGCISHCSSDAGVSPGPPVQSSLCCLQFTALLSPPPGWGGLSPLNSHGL
Procedure, shortened: as §1

OR4A16 (Homo sapiens) = biological target: T16, OR4A16 (Homo sapiens) (UniProt Q8NH70)
T16 sequence (whole entry): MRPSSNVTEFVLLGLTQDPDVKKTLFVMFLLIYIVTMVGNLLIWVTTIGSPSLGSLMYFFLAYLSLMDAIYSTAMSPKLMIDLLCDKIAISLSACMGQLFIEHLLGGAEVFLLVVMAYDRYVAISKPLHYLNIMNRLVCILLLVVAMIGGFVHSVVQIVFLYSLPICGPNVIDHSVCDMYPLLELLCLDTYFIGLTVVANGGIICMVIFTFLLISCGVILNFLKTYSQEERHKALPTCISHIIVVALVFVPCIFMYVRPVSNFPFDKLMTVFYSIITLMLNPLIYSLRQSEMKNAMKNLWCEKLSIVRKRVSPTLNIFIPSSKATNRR
Procedure, shortened: as §1

OR4A4P (Homo sapiens) = biological target: T17, OR4A4P (Homo sapiens) (UniProt Q8NGN8)
T17 sequence (whole entry): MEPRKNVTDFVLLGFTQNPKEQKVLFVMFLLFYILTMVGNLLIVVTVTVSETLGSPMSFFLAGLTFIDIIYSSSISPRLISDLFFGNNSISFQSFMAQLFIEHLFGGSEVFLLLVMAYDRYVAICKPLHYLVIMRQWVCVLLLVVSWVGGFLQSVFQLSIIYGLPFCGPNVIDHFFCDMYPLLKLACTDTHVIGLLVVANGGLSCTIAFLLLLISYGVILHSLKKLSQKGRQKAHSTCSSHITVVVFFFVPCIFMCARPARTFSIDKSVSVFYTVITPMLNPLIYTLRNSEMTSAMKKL
Procedure, shortened: as §1

OR4A5 (Homo sapiens) = biological target: T18, OR4A5 (Homo sapiens) (UniProt Q8NH83)
T18 sequence (whole entry): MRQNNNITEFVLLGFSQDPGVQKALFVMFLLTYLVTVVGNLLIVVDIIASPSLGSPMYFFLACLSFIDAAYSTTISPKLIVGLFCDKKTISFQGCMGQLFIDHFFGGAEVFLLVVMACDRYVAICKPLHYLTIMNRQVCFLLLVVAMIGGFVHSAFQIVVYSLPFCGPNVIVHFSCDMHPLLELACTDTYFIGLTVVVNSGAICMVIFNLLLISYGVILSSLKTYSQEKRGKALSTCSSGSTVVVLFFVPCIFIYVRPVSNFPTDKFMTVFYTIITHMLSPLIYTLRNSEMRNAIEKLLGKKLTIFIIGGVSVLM
Procedure, shortened: as §1

OR4A5 = tested on: T19, OR4A5
T19 sequence (whole entry): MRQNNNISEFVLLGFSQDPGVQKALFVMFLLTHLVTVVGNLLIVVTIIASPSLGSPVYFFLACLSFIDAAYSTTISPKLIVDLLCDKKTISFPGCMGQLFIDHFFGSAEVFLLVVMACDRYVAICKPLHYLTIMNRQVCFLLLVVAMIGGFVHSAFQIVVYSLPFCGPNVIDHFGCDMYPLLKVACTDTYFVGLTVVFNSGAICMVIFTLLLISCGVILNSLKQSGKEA
Procedure, shortened: as §1

Measured: odorant receptor agonist call

CCCCOC(C)=O
inactive: OR2T5 | OR2T6 | OR2T8 | OR2V1 | OR2V2 | OR2W3 | OR2W5P (Homo sapiens) | OR2Y1 | OR2Z1 (Homo sapiens) | OR3A1 (Homo sapiens) | OR3A2 (Homo sapiens) | OR3A3 | OR3A4 | OR4A16 (Homo sapiens) | OR4A4P (Homo sapiens) | OR4A5 (Homo sapiens) | OR4A5
active: OR2W1 (Homo sapiens) | OR2W1 [1] | OR2W1 [2]

CCOc1cc(C=O)ccc1O
inactive: OR2W1 (Homo sapiens)
